From paper PMC12040169 (PLOS Biology, 2025)
Some of the results follow.

Tested on: T1, CTL2-GFP (C. trachomatis L2/434/Bu, GFP-expressing)
T1 construct: L2/434/Bu, GFP-expressing
Set-up: species or system HeLa; Intracellular C. trachomatis growth in HeLa cells, bulk GFP fluorescence relative to DMSO
Details: bulk GFP, single well; 28.5 h, 10 µM; inhibitor

Row | Structure (SMILES) | % of control remaining
1 | c1csc(-c2nccnc2NCCc2ccncc2)c1 [CBK036764] | 100.038%
2 | c1ccc(CCN2CCC(Oc3cncc(OCC4COc5ccccc5O4)n3)C2)cc1 (stereo not drawn) [CBK084382] | 106.45%
3 | COc1ncccc1C(NC(=O)C1CCN(C(=O)OCc2ccccc2)CC1)c1ccccc1C (stereo not drawn) [CBK076802] | 150.676%
4 | Cc1cc(C(F)(F)F)n2nc(C3CCCN3C(=O)C(C)C)cc2n1 (stereo not drawn) [CBK284685] | 113.63%
5 | OCc1ccc(-c2nccnc2N2CCCC2CO)cc1 (stereo not drawn) [CBK089053] | 126.922%
6 | COc1ccnc(N2CCCN(CCCC#N)CC2)n1 [CBK084124] | 157.331%
7 | CC(NC(=O)N(CCCN)Cc1ccccc1C(F)(F)F)c1ccccc1 (stereo not drawn) [CBK034668C] | 122.051%
8 | O=C(c1cc2ncc(CCO)cn2n1)N1CCC(c2ccccc2Cl)C1 (stereo not drawn) [CBK307266] | 111.363%
9 | COc1cccc(CNc2ccc(S(N)(=O)=O)cc2)c1OCc1ccccc1F [CBK267906] | 92.1021%
10 | CC(C)[C@H]1NC(=O)[C@@H]2[C@@H](NC(=O)NC3CCCCC3)CCN2C1=O [CBK289264] | 109.138%
11 | CCCc1cc(C(=O)N2CCCC(COc3cccc(F)c3)C2)[nH]n1 (stereo not drawn) [CBK306776] | 95.0114%
12 | Cc1cccc(CN2CCC3(CCc4ccccc4C(=O)N3)C2)n1 (stereo not drawn) [CBK284619] | 120.889%
13 | Cc1nnc(Sc2ncccc2C(F)(F)F)s1 [CBK115211] | 100%
14 | COc1ccc2[nH]c(C(=O)O)c(CCC(=O)O)c2c1 [CBK266582] | 92.4287%
15 | CCn1c(=N)n(CC(=O)O)c2ccccc21 [CBK262906B] | 100%
16 | Nc1nc(-c2ccc(F)cc2)c2c(n1)-c1ccccc1C2=O [CBK287881] | 78.7264%
17 | N#Cc1ccc(Cn2cc(C(=O)C(N)=O)c3ccccc32)cc1 [CBK270062] | 147.859%
18 | OCc1cccc(-c2cncc(NC3CCC(O)CC3)n2)c1 (stereo not drawn) [CBK065448] | 115.099%
19 | CC12CCC(C(=O)O)(C/C1=N\N)C2(C)C (stereo not drawn) [CBK265268] | 100%
20 | Cc1ccc(CCCC(=O)N2CCc3c([nH]c4c(C)cccc34)C23CCN(Cc2ccc(F)cc2)C3)cc1 (stereo not drawn) [CBK066979] | 79.8214%
21 | CCN1CCN(Cc2c(O)ccc3c(=O)c(-c4ccccc4OC)c(C(F)(F)F)oc23)CC1 [CBK263692] | 100%
22 | Cc1ccc(C(=O)N2CCC(Cc3ccccc3)CC2)cn1 [CBK200179] | 95.3698%
23 | CCc1nn(CC(=O)OC(C)C)c(=O)c2cc3sccc3n12 [CBK284076] | 133.473%
24 | O=S(=O)(Nc1cc(-c2ccco2)n[nH]1)c1ccc(Br)cc1C(F)(F)F [CBK067286] | 139.646%
25 | O=S(=O)(c1ccc(C(F)(F)F)cc1Cl)N1CCCN(Cc2ccc(F)cc2F)CC1 [CBK062946] | 125.262%
26 | Cc1ccc2c(c1)c(-c1ccccc1)c(-c1ccccc1)n2CC(O)Cn1cnc(-c2ccccc2)c1-c1ccccc1 (stereo not drawn) [CBK262531] | 100%

Row | Structure (SMILES) | % of control remaining
27 | O=C(NCO)c1ccccc1O [CBK012717] | 127.75%
28 | COc1ccc(CCNC(=O)N2CCN(c3cc(C(F)(F)F)ccn3)CC2)cc1OC [CBK162330] | 103.66%
29 | Cc1[nH]c(=O)[nH]c(=O)c1S(=O)(=O)Nc1ccc(S(N)(=O)=O)cc1 [CBK262123] | 102.119%
30 | C=CCNC(=O)[C@@H]1C=CCN1S(=O)(=O)c1ccc(Cl)cc1 [CBK284318] | 126.078%
31 | COc1ccc(CN2C(=O)CC(c3ccccc3)C2=O)cc1 (stereo not drawn) [CBK002055] | 172.498%
32 | CSCCN1CCCN(c2nccc(OCC3COc4ccccc4O3)n2)CC1 (stereo not drawn) [CBK083978] | 103.423%
33 | COc1ccc(OCC(=O)Nc2ccccc2N2CCN(S(C)(=O)=O)CC2)cc1 [CBK269177] | 153.586%
34 | CN1CCN(c2ncc(-c3ccc(N4CCOCC4)cc3)n3ccnc23)CC1 [CBK091226] | 86.6158%
35 | CCCCc1ccc(-c2ccc(-c3cc(C(=O)O)c4cc(C)ccc4n3)o2)cc1 [CBK300528] | 106.758%
36 | O=C1c2ccccc2C(=O)N1CCc1nc2ccccc2c(=O)n1-c1nc2ccccc2s1 [CBK266358] | 129.748%
37 | NC(=O)NC(CC(=O)N1CCOC2CCCCC21)c1cccc(Br)c1 (stereo not drawn) [CBK306299] | 108.232%
38 | Cc1cnc(NC(=O)Cc2ccc(F)cc2)s1 [CBK288249] | 149.542%
39 | COC(=O)c1ccc(NC(=O)N(Cc2cnn(C)c2)CC(C)C)cc1Cl [CBK304387] | 100.955%
40 | c1ccc(Oc2ccccc2-c2cc(N3CCC(N4CCCCC4)CC3)ncn2)cc1 [CBK037728] | 121.758%
41 | O=[N+]([O-])c1ccccc1S(=O)(=O)N1CCN(Cc2cccc(Oc3ccccc3)c2)CC1 [CBK264283] | 115.433%
42 | Cc1cc(-c2ccccc2)sc1C(=O)/C=C(\O)C(=O)O [CBK263198] | 125.619%
43 | CSc1ccc(CN(C)c2cncc(-n3cccn3)n2)cc1 [CBK298326] | 161.094%
44 | O=S(=O)(Nc1ccccn1)N1CCCCC1 [CBK269490] | 144.986%
45 | Cc1cc(NC(=O)c2cc([N+](=O)[O-])ccc2Cl)nc2c1c(=O)oc1ccccc12 [CBK291258] | 110.092%
46 | Cc1csc2c(C3CCCN(C(=O)c4ccncc4)C3)nc(C)n12 (stereo not drawn) [CBK285213] | 126.407%
47 | Cc1cc(C)n(CCCC(=O)N2CCC3(CC2)CC(=O)N(C)C3)n1 [CBK306905] | 127.353%
48 | CC(=O)NC1(c2ccc(F)cc2)CCN(C(=O)C(C)C)CC1 [CBK283491] | 99.6912%
49 | COCCn1c(SCCC(=O)O)nc2c1c(=O)[nH]c(=O)n2C [CBK139751] | 109.094%
50 | O=c1c2ccccc2nc(S)n1CC(O)c1ccccc1 (stereo not drawn) [CBK288386] | 160.576%
51 | Sc1nnc(COc2ccccc2)n1/N=C/c1ccc(-c2ccccc2)cc1 [CBK265269] | 100.996%
52 | CCCC/C=C/c1cn2ccnc2c(Nc2cccc(OCC(=O)N(C)C)c2)n1 [CBK066185] | 112.067%

Row | Structure (SMILES) | % of control remaining
53 | O=C(CCc1ccco1)N1CCCC1c1nc2ccccc2[nH]1 (stereo not drawn) [CBK283767] | 97.3629%
54 | Cc1ccc(C2(CN3CCN(Cc4cnc(C)n4C)CC3)CC2)cc1 [CBK282469] | 128.279%
55 | CC1=C(c2ccc(OC(C)(C)CN3CCCC3)cc2)C(C)CCC1 (stereo not drawn) [CBK012357C] | 117.001%
56 | CC(C)n1c(=O)n(CC(=O)NCc2ccccc2)c2cccnc21 [CBK283758] | 102.544%
57 | Cc1ccc(-n2ncc3c2NC(=O)N2CCN=C32)cc1 [CBK284345] | 113.943%
58 | CC(C)(C)c1cc(CCC(=O)N2CCN(C(=O)CCc3cc(C(C)(C)C)c(O)c(C(C)(C)C)c3)CC2)cc(C(C)(C)C)c1O [CBK261963] | 121.057%
59 | O=C(O)c1ccc2[nH]cc(CN3CCOCC3)c2c1 [CBK287081] | 136.578%
60 | c1ccc2c(OCc3nc4c5c6c(sc5ncn4n3)CCCCC6)cccc2c1 [CBK264151] | 115.343%
61 | Nc1cccc(-c2cncc(NCC3CCOCC3)n2)c1 [CBK037221] | 176.855%
62 | CCOC(=O)CSc1nc(=O)cc(N)n1Cc1ccc(F)cc1 [CBK269938] | 123.245%
63 | COc1ccc(Cc2c(C)nc3c(C(=O)NCC4CCCO4)cnn3c2C)cc1 (stereo not drawn) [CBK162183] | 111.566%
64 | Cc1c(C(=O)N(C)Cc2cc3ccccc3o2)nnn1C1CCNCC1 [CBK304307C] | 127.39%
65 | CC(C)[C@H](CO)n1c(=O)[nH]c2ncc(-c3ccco3)nc21 [CBK064479] | 136.797%
66 | CSc1ccc(-n2ncc(-c3cccc(C(F)(F)F)c3)n2)cc1 [CBK112666] | 113.144%
67 | COCCc1nc(C2CCN(C)CC2)n(Cc2ccccc2C)n1 [CBK307449] | 97.3061%
68 | CC(C)(CO)CNc1cncc(-c2ccccc2CO)n1 [CBK066088] | 192.34%
69 | COc1cc(/C=N/c2cccc3c(/N=C/c4ccc(O)c(OC)c4)cccc23)ccc1O [CBK261224] | 11.483%
70 | CCN(CC)S(=O)(=O)c1cccc(-n2sc3ccccc3c2=O)c1 [CBK116501] | 95.6821%
71 | CC(C)(Cc1ccccc1)NCC(O)COc1ccc2c(c1)C1CCC2C1 (stereo not drawn) [CBK018228C] | 56.4077%
72 | CC(C)[C@@H](CO)n1c(=O)[nH]c2ncc(-c3cccc(/C=C/C(=O)O)c3)nc21 [CBK065043] | 120.986%
73 | CN1CC[C@@H]2[C@H]1C(=O)NC[C@H](CCC(=O)NCc1cccs1)N2C [CBK289028] | 85.1286%
74 | COc1cc(C(=O)N2CCCC3(CCN(C(=O)Cc4c[nH]c5ccccc45)C3)C2)cc(OC)c1OC (stereo not drawn) [CBK131601] | 122.558%
75 | COc1ncc(-c2cncc(N3CCCN(C)CC3)n2)c(OC)n1 [CBK065286] | 110.472%
76 | FC(F)(F)c1ccc(OC2CCNCC2)nc1 [CBK113287] | 124.864%
77 | Cc1ccc(C(=O)CN2CCC3(CC2)NCCc2c3[nH]c3ccc(F)cc23)cc1 [CBK039503] | 113.487%
78 | COc1ccccc1CN(CN1C(=O)c2ccccc2C1=O)CN1C(=O)c2ccccc2C1=O [CBK265039] | 116.206%

No new results follow: an excerpt of the list.
Row | Structure (SMILES) | % of control remaining
70 | CCN(CC)S(=O)(=O)c1cccc(-n2sc3ccccc3c2=O)c1 [CBK116501] | 95.6821%
71 | CC(C)(Cc1ccccc1)NCC(O)COc1ccc2c(c1)C1CCC2C1 (stereo not drawn) [CBK018228C] | 56.4077%
72 | CC(C)[C@@H](CO)n1c(=O)[nH]c2ncc(-c3cccc(/C=C/C(=O)O)c3)nc21 [CBK065043] | 120.986%
73 | CN1CC[C@@H]2[C@H]1C(=O)NC[C@H](CCC(=O)NCc1cccs1)N2C [CBK289028] | 85.1286%
